Reference: the supplement of paper PMC10849652
The list shows a part of the results.

Protein sequences, listed by entry. Tags and fused reporters are not part of them. Lines headed by an entry give the natural chain unless they say otherwise; changes in a name come on top.
UniProt Q96DM3: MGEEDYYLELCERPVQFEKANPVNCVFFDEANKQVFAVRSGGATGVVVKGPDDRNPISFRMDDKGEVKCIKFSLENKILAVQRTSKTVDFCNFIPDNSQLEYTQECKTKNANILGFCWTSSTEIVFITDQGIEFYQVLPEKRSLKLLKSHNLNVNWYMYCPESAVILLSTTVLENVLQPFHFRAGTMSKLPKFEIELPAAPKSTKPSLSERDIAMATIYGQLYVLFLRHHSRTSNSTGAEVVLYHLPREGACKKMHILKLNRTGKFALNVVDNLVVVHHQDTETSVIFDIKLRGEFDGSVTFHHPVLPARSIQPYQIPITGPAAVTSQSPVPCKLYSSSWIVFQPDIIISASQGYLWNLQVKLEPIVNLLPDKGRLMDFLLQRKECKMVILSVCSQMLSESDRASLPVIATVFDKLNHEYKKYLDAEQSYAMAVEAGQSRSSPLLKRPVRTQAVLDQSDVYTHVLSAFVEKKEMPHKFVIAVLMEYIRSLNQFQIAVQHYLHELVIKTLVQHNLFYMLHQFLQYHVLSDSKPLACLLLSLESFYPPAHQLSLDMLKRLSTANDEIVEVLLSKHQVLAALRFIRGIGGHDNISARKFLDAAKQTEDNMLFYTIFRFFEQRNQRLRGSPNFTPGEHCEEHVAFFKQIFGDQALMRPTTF
UniProt O43353, whole entry, looked up: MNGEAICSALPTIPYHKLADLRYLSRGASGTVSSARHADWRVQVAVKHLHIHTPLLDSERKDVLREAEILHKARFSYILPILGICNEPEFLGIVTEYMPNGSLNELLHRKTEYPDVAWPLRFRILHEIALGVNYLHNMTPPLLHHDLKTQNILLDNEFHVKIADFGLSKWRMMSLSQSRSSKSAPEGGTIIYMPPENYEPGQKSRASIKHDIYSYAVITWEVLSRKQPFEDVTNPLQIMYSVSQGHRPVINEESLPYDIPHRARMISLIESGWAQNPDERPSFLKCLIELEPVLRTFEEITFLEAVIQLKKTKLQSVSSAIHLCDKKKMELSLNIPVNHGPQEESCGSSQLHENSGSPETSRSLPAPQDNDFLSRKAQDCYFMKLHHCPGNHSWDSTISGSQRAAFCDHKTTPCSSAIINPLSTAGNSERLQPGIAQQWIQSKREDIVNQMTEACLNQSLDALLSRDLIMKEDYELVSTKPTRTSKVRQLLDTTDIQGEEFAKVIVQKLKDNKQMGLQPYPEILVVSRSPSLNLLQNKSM
UniProt Q6NUQ1: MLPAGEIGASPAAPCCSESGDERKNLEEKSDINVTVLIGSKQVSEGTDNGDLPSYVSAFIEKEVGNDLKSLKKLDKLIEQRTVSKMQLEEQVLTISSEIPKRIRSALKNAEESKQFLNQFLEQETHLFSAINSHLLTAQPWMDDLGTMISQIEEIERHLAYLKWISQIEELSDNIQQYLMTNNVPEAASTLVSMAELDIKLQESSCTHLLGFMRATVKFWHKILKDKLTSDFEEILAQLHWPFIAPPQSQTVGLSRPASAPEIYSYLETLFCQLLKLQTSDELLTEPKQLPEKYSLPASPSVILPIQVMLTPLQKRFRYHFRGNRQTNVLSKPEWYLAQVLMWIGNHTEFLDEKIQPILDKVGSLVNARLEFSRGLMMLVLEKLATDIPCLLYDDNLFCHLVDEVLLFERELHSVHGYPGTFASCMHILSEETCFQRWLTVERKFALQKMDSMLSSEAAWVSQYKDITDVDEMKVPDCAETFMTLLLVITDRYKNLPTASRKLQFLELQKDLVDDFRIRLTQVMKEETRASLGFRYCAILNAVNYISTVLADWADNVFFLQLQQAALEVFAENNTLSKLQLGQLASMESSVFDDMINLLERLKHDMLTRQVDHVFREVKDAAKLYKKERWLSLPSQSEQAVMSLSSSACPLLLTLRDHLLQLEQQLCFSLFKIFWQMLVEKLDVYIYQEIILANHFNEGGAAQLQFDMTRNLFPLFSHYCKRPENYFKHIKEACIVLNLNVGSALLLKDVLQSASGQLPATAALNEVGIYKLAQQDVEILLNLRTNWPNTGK
UniProt Q9UBS8: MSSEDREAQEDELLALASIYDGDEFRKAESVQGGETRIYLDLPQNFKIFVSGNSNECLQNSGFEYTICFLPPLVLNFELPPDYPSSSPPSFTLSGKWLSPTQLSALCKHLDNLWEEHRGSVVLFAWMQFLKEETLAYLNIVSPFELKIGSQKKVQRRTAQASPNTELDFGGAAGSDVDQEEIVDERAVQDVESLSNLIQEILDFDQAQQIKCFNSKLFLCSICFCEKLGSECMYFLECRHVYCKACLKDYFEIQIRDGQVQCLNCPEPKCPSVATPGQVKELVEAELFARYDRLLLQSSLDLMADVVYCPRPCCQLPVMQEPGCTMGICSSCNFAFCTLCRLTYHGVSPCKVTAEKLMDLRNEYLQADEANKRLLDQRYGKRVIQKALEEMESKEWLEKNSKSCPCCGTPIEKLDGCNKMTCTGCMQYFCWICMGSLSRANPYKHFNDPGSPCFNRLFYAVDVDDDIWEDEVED
UniProt Q7L0Q8: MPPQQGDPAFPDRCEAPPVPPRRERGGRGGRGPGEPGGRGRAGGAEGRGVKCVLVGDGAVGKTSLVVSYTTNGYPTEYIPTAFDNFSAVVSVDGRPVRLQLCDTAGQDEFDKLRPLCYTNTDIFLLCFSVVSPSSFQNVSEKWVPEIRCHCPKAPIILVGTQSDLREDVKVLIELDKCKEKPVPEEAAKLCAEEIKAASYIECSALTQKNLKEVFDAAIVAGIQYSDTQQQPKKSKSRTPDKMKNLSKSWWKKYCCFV
UniProt Q9BVS4: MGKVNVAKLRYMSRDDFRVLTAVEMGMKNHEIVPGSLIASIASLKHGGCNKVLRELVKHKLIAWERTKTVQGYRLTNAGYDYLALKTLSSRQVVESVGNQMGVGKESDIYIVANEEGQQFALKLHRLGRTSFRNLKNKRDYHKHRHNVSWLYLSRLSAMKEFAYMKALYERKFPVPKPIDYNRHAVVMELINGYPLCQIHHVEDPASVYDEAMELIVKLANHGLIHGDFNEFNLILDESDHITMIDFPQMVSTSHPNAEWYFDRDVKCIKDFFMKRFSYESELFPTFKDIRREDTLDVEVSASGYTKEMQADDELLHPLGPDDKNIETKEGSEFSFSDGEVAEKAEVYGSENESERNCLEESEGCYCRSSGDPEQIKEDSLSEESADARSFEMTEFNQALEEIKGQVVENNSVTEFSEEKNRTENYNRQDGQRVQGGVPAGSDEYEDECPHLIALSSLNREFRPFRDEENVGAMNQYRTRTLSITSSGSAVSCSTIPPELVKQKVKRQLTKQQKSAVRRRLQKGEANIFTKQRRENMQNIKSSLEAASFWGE
UniProt O14730: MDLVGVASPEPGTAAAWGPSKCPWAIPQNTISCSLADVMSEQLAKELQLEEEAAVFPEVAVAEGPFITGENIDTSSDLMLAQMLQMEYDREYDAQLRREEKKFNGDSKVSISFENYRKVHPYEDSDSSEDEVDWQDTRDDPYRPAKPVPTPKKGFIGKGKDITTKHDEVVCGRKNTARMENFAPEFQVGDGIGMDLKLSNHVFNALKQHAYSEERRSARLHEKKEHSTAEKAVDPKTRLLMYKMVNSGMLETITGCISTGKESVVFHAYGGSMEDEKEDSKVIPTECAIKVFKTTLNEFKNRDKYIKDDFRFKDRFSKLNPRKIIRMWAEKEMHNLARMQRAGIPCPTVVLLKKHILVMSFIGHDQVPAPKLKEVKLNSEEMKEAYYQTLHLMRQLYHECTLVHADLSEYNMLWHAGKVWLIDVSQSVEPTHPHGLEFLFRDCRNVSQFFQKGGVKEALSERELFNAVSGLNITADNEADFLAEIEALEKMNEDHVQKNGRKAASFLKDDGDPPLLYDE
UniProt Q96NA2: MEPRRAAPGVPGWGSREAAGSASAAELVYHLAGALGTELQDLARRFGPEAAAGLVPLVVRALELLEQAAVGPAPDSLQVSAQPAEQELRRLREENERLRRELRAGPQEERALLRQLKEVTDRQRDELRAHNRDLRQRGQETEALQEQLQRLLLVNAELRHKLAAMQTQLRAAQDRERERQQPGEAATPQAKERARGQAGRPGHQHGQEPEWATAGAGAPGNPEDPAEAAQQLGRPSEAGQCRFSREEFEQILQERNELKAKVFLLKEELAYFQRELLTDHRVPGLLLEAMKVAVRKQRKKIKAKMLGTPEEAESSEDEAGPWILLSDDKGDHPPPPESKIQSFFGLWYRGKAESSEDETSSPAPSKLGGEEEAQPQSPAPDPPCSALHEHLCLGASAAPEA
UniProt P27694, whole entry, looked up: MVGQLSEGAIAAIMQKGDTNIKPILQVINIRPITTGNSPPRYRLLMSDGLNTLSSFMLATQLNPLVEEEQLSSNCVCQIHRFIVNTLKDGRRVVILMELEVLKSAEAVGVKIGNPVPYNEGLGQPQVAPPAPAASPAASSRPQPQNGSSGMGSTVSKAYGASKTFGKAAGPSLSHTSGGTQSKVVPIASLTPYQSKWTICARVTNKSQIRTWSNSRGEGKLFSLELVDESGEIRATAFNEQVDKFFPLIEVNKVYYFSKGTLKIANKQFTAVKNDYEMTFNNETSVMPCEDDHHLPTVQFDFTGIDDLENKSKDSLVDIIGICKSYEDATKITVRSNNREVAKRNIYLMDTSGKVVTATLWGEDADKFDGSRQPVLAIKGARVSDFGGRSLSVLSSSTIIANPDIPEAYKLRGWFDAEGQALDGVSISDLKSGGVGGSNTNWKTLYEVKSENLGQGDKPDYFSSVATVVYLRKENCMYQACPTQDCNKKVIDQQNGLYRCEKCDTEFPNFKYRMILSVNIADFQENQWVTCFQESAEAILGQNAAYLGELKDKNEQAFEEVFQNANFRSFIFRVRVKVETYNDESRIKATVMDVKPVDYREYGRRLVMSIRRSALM
UniProt Q96A37: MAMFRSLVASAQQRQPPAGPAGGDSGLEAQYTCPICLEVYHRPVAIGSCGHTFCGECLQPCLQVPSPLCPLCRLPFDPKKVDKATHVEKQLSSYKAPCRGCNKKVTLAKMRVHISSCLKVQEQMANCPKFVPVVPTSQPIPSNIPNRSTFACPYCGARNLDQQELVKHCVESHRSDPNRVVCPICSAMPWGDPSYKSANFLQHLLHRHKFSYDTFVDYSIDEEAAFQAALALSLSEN
UniProt Q8IUF8: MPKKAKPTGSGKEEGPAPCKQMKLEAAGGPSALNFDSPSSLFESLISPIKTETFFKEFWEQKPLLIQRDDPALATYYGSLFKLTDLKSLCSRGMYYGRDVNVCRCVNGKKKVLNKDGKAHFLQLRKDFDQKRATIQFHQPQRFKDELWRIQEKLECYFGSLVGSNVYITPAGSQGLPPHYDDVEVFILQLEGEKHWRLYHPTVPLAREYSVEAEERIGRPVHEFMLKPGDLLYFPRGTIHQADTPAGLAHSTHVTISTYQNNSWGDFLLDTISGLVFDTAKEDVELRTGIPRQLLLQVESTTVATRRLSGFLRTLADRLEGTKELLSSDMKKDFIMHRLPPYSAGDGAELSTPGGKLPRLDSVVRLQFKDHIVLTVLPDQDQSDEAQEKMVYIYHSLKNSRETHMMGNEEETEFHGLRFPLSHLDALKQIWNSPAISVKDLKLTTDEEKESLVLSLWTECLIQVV
UniProt P35244: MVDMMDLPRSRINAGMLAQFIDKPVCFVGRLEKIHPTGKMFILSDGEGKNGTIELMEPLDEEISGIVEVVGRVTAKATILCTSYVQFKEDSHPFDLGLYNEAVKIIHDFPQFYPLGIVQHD
UniProt Q9P0P0: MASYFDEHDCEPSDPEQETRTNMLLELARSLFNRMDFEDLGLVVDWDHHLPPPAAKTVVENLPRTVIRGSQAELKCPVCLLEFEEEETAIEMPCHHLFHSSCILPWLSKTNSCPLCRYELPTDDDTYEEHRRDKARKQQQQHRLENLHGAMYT
UniProt P15927: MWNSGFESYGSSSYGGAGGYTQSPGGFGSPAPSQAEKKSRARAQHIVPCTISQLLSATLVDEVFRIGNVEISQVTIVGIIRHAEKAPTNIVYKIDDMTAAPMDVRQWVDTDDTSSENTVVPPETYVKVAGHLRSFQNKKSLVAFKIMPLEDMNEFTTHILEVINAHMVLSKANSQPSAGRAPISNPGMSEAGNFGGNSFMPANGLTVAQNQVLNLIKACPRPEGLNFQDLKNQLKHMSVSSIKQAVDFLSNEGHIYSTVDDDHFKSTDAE
UniProt Q8WVD5: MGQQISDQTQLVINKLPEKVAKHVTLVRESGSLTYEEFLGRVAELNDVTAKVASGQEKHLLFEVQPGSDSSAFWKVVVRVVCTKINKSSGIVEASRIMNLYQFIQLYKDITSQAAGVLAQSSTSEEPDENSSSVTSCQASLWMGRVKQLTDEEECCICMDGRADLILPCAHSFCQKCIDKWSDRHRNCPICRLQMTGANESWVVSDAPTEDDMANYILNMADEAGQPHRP

Experiments:
Assay in all cases: log2 fold change, soluble protein after heating vs DMSO (PISA); higher = thermal stabilisation; K562 lysate, 10 uM; active = over 0.2 and 3.5 SD of the protein, either way, in both replicates (recomputed)
nilotinib = compound: Cc1cn(-c2cc(NC(=O)c3ccc(C)c(Nc4nccc(-c5cccnc5)n4)c3)cc(C(F)(F)F)c2)cn1 [nilotinib]
How it was run: (§1)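 Log-two fold change in thermal stability relative to solvent controls is reported from duplicates. For each sample, crude K562 extract from dounce-homogenised pellets in PBS pH 7.4 with 1 mM MgCl2, at 1 mg/mL protein, was treated with 10 μM compound for 30 min. Aliquots heated for 3 min across 48°C-58°C were pooled, brought to 0.5% NP-40 at 4°C and cleared at 21,000xg for 90 min. The supernatant was quantified by TMTpro 16plex LC-MS/MS with channel sums equalised.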

[1] = compound: Cc1nc(Nc2n[nH]c3c2CN(C(=O)N[C@H](CN(C)C)c2ccccc2)C3(C)C)c2sccc2n1
How it was run: as §1

dasatinib = compound: Cc1nc(Nc2ncc(C(=O)Nc3c(C)cccc3Cl)s2)cc(N2CCN(CCO)CC2)n1 [dasatinib]
How it was run: as §1

[2] = compound: Cc1ncc(-c2ccnc(Nc3ccc(S(C)(=O)=O)cc3)n2)n1C(C)C
How it was run: as §1

[3] = compound: Cn1cc(-c2ccc3c(c2)CCN3C(=O)Cc2cccc(C(F)(F)F)c2)c2c(N)ncnc21
How it was run: as §1

quisinostat = compound: Cn1cc(CNCC2CCN(c3ncc(C(=O)NO)cn3)CC2)c2ccccc21 [quisinostat]
How it was run: as §1

tipifarnib = compound: Cn1cncc1[C@@](N)(c1ccc(Cl)cc1)c1ccc2c(c1)c(-c1cccc(Cl)c1)cc(=O)n2C [tipifarnib]
How it was run: as §1

[4] = compound: NC(=O)Nc1cc(-c2cccc(F)c2)sc1C(=O)N[C@H]1CCCNC1
How it was run: as §1

[5] = compound: NC(=O)c1cnc(N[C@@H]2CCCC[C@@H]2N)nc1Nc1cccc(-n2nccn2)c1
How it was run: as §1

[6] = compound: NC1(c2ccc(-c3nc4ccn5c(=O)[nH]nc5c4cc3-c3ccccc3)cc2)CCC1
How it was run: as §1

Measured: log2 fold change

RMC1 (UniProt Q96DM3)
inactive: nilotinib 0.027 | [1] 0.005 | dasatinib 0.008 | [2] -0.002 | [3] 0.003 | quisinostat -0.02 | tipifarnib -0.057 | [4] 0.035 | [5] -0.007 | [6] 0.036

RIPK2 (UniProt O43353)
inactive: nilotinib 0.068 | [1] 0.009 | dasatinib 0 | [2] 0.025 | [3] 0.077 | quisinostat -0.021 | tipifarnib -0.022 | [4] -0.036 | [5] -0.034 | [6] 0.006

RPL15 (UniProt P61313)
inactive: nilotinib 0 | [1] 0.009 | dasatinib 0.013 | [2] -0.037 | [3] 0.031 | quisinostat -0.011 | tipifarnib 0.002 | [4] -0.012 | [5] -0.02 | [6] 0.015

RINT1 (UniProt Q6NUQ1)
inactive: nilotinib 0.043 | [1] 0.075 | dasatinib -0.115 | [2] 0.028 | [3] 0.012 | quisinostat -0.029 | tipifarnib -0.044 | [4] 0.071 | [5] 0.001 | [6] -0.014

RNF14 (UniProt Q9UBS8)
inactive: nilotinib 0.01 | [1] -0.002 | dasatinib 0.016 | [2] -0.013 | [3] 0.012 | quisinostat -0.05 | tipifarnib 0.012 | [4] 0.01 | [5] 0.021 | [6] -0.035

RNF123 (UniProt Q5XPI4)
inactive: nilotinib 0.012 | [1] -0.013 | dasatinib -0.059 | [2] 0.022 | [3] 0.054 | quisinostat -0.046 | tipifarnib -0.006 | [4] 0.04 | [5] 0.019 | [6] 0.01

RPL10A (UniProt P62906)
inactive: nilotinib 0.024 | [1] -0.025 | dasatinib 0.02 | [2] -0.014 | [3] 0.012 | quisinostat 0.004 | tipifarnib 0.014 | [4] 0.012 | [5] -0.02 | [6] 0.025

RHOU (UniProt Q7L0Q8)
inactive: nilotinib -0.032 | [1] -0.028 | dasatinib -0.004 | [2] 0.114 | [3] 0.145 | quisinostat -0.053 | tipifarnib 0.12 | [4] 0.035 | [5] -0.045 | [6] 0.033

RIOK2 (UniProt Q9BVS4)
inactive: nilotinib 0.002 | [1] 0.034 | dasatinib 0.01 | [3] -0.023 | quisinostat -0.054 | tipifarnib -0.013 | [4] 0.05 | [5] 0.198 | [6] -0.03
active: [2] 0.537

RIOK3 (UniProt O14730)
inactive: nilotinib 0.017 | [1] -0.027 | dasatinib -0.05 | [2] -0.076 | [3] 0.002 | quisinostat -0.063 | tipifarnib 0.008 | [4] 0.01 | [5] 0.009 | [6] 0.014

RPL19 (UniProt P84098)
inactive: nilotinib 0.032 | [1] -0.019 | dasatinib 0.026 | [2] -0.012 | [3] 0.011 | quisinostat 0.098 | tipifarnib 0.029 | [4] -0.04 | [5] -0.023 | [6] -0.027

RILP (UniProt Q96NA2)
inactive: nilotinib 0.023 | [1] -0.018 | dasatinib -0.015 | [2] 0.009 | [3] -0.018 | quisinostat 0.015 | tipifarnib 0.036 | [4] -0.017 | [5] -0.008 | [6] 0.031

RPL23A (UniProt P62750)
inactive: nilotinib 0.028 | [1] -0.036 | dasatinib 0.008 | [2] 0.029 | [3] 0.001 | quisinostat 0.073 | tipifarnib 0.019 | [4] 0.028 | [5] -0.011 | [6] 0.029

RIOK1 (UniProt Q9BRS2)
inactive: nilotinib -0.018 | [1] 0.06 | dasatinib -0.018 | [2] 0.072 | [3] 0.008 | quisinostat -0.007 | tipifarnib 0.003 | [4] -0.012 | [5] -0.033 | [6] -0.072

Reprinted at random: two entries already listed.
RNF123 (UniProt Q5XPI4)
inactive: nilotinib 0.012 | [1] -0.013 | dasatinib -0.059 | [2] 0.022 | [3] 0.054 | quisinostat -0.046 | tipifarnib -0.006 | [4] 0.04 | [5] 0.019 | [6] 0.01

RHOU (UniProt Q7L0Q8)
inactive: nilotinib -0.032 | [1] -0.028 | dasatinib -0.004 | [2] 0.114 | [3] 0.145 | quisinostat -0.053 | tipifarnib 0.12 | [4] 0.035 | [5] -0.045 | [6] 0.033

Following part.

RPA1 (UniProt P27694)
inactive: nilotinib -0.014 | [1] 0.018 | dasatinib 0.014 | [2] -0.007 | [3] -0.007 | quisinostat 0.02 | tipifarnib -0.008 | [4] -0.004 | [5] 0.006 | [6] -0.008

ROCK2 (UniProt O75116)
inactive: nilotinib -0.009 | [1] 0.035 | dasatinib 0.015 | [2] 0.02 | [3] 0.039 | quisinostat -0.012 | tipifarnib -0.014 | [4] 0.137 | [5] 0.052 | [6] 0.001

RIF1 (UniProt Q5UIP0)
inactive: nilotinib -0.011 | [1] 0.019 | dasatinib 0.017 | [2] -0.003 | [3] -0.023 | quisinostat -0.059 | tipifarnib -0.02 | [4] 0.025 | [5] 0.037 | [6] 0.027

RPAP1 (UniProt Q9BWH6)
inactive: nilotinib -0.002 | [1] 0.014 | dasatinib -0.027 | [2] -0.01 | [3] 0.032 | quisinostat -0.02 | tipifarnib -0.01 | [4] 0.013 | [5] 0.029 | [6] 0.004

RNF166 (UniProt Q96A37)
inactive: nilotinib 0.111 | [1] -0.199 | dasatinib 0.152 | [2] 0.058 | [3] -0.258 | quisinostat -0.04 | tipifarnib -0.023 | [4] -0.002 | [5] 0.035 | [6] -0.016

RIOX2 (UniProt Q8IUF8)
inactive: nilotinib 0.015 | [1] 0.004 | dasatinib 0.003 | [2] 0.095 | [3] -0.017 | quisinostat -0.065 | tipifarnib -0.024 | [4] 0.035 | [5] -0.039 | [6] -0.067

RPL24 (UniProt P83731)
inactive: nilotinib 0.014 | [1] -0.026 | dasatinib 0.016 | [2] -0.002 | [3] -0.008 | quisinostat 0.04 | tipifarnib -0.01 | [4] 0 | [5] 0.003 | [6] -0.024

RPA3 (UniProt P35244)
inactive: nilotinib 0.011 | [1] -0.006 | dasatinib 0.086 | [2] 0.026 | [3] -0.009 | quisinostat 0.001 | tipifarnib 0.04 | [4] -0.035 | [5] -0.02 | [6] -0.029

RPL27A (UniProt P46776)
inactive: nilotinib -0.043 | [1] 0.025 | dasatinib 0.029 | [2] -0.007 | [3] 0.044 | quisinostat -0.026 | tipifarnib 0.011 | [4] 0.003 | [5] 0.018 | [6] -0.04

RNF40 (UniProt O75150)
inactive: nilotinib -0.022 | [1] 0.009 | dasatinib -0.012 | [2] 0.003 | [3] 0.031 | quisinostat -0.029 | tipifarnib 0.003 | [4] 0.031 | [5] 0.009 | [6] -0.012

RNF181 (UniProt Q9P0P0)
inactive: nilotinib 0.023 | [1] 0.027 | dasatinib 0.013 | [2] 0.007 | [3] -0.004 | quisinostat -0.027 | tipifarnib -0.03 | [4] 0.006 | [5] -0.01 | [6] -0.023

RPA2 isoform 3 (UniProt P15927)
inactive: nilotinib 0.001 | [1] -0.008 | dasatinib 0.013 | [2] -0.008 | [3] -0.032 | quisinostat -0.013 | tipifarnib 0.034 | [4] -0.017 | [5] -0.007 | [6] -0.021

RPL10 (UniProt F8W7C6)
inactive: nilotinib -0.058 | [1] -0.033 | dasatinib 0.043 | [2] 0.021 | [3] -0.106 | quisinostat -0.104 | tipifarnib 0.155 | [4] 0.044 | [5] 0.086 | [6] 0.016

RNF141 (UniProt Q8WVD5)
inactive: nilotinib 0.01 | [1] -0.002 | dasatinib 0.061 | [2] 0.011 | [3] -0.067 | quisinostat -0.067 | tipifarnib 0.007 | [4] 0.028 | [5] -0.043 | [6] 0
